According to US9365577B2, “Pyrimidinone compounds as human neutrophil elastase inhibitors” (CHIESI FARMACEUTICI S.p.A., priority 2012, dated 2016):
Where a name gives a salt, the structure may show the parent alone. Some of these results come from one statement about several compounds together.

biological target: T1, human neutrophil elastase (HNE) (Homo sapiens, UniProt P08246); assay: HNE enzyme assay; assay type: biochemical; conditions: human leukocyte elastase, substrate MeOSuc-Ala-Ala-Pro-Val-AMC, 25° C. for 30 minutes, fluorescence; at least two separate experiments; read-out: HNE inhibition
T1 construct: purchased Sigma E8140
T1 sequence (P08246 30-267): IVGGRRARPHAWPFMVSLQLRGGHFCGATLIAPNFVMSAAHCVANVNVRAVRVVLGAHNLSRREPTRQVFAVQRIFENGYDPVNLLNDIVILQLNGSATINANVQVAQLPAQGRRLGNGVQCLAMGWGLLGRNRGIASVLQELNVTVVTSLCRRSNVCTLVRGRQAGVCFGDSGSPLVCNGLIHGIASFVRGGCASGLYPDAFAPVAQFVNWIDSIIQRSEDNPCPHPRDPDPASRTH

Row | SMILES | IC50 [µM]
1 | COC(=O)C1=C(C)N(c2cccc(C(F)(F)F)c2)c2n[nH]c(=O)n2[C@@H]1c1ccc(C#N)cc1CCC[N+]1(C)CCOCC1 [Example 22, 4-(3-{5-Cyano-2-[(R)-6-methoxycarbonyl-7-methyl-3-oxo-8-(3-trifluoromethyl-phenyl)-2,3,5,8-tetrahydro-[1,2,4]triazolo[4,3-a]pyrimidin-5-yl]-phenyl}-propyl)-4-methyl-morpholin-4-ium formate] | < 0.02
2 | CC[N+](C)(C)Cc1cc(C#N)ccc1[C@@H]1C(C(=O)OC)=C(C)N(c2cccc(C(F)(F)F)c2)c2n[nH]c(=O)n21 [Example 26, {5-cyano-2-[(R)-6-methoxycarbonyl-7-methyl-3-oxo-8-(3-trifluoromethyl-phenyl) 2,3,5,8-tetrahydro-[1,2,4]triazolo[4,3-a]pyrimidin-5-yl]-benzyl}-ethyl-dimethyl-ammonium formate] | < 0.02
3 | COC(=O)C1=C(C)N(c2cccc(C(F)(F)F)c2)c2n[nH]c(=O)n2[C@@H]1c1ccc(C#N)cc1C[N+]12CCC(CC1)CC2 [Example 28, 1-{5-cyano-2-[(R)-6-methoxycarbonyl-7-methyl-3-oxo-8-(3-trifluoromethyl-phenyl)-2,3,5,8-tetrahydro-[1,2,4]triazoIo[4,3-a]pyrimidin-5-yl]-benzyl}-1-azonia-bicyclo[2.2.2]octane formate] | < 0.02
4 | COC(=O)C1=C(C)N(c2cccc(C(F)(F)F)c2)c2n[nH]c(=O)n2[C@@H]1c1ccc(C#N)cc1C[N+]1(C)CCN(C)CC1 [Example 29, 1-{5-cyano-2-[(R)-6-methoxycarbonyl-7-methyl-3-oxo-8-(3-trifluoromethyl-phenyl)-2,3,5,8-tetrahydro-[1,2,4]triazolo[4,3-a]pyrimidin-5-yl]-benzyl}-1,4-dimethyl-piperazin-1-ium formate] | < 0.02
5 | COC(=O)C1=C(C)N(c2cccc(C(F)(F)F)c2)c2n[nH]c(=O)n2[C@@H]1c1ccc(C#N)cc1C[N+](C)(C)[C@H]1CC[C@H](O)CC1 [Example 30, {5-Cyano-2-[(R)-6-methoxycarbonyl-7-methyl-3-oxo-8-(3-trifluoromethyl-phenyl)-2,3,5,8-tetrahydro-[1,2,4]triazolo[4,3-a]pyrimidin-5-yl]-benzyl}-(4-hydroxy-cyclohexyl)-dimethyl ammonium formate] | < 0.02
6 | COC(=O)C1=C(C)N(c2cccc(C(F)(F)F)c2)c2n[nH]c(=O)n2[C@@H]1c1ccc(C#N)cc1C[N+]12CCN(CC1)CC2 [Example 31, 1-{5-cyano-2-[(R)-6-methoxycarbonyl-7-methyl-3-oxo-8-(3-trifluoromethyl-phenyl)-2,3,5,8-tetrahydro-[1,2,4]triazolo[4,3-a]pyrimidin-5-yl]-benzyl}-4-aza-1-azonia-bicyclo[2.2.2]octane formate] | < 0.02
7 | CC1=C(C(=O)O)[C@@H](c2ccc(C#N)cc2C[N+]23CCN(CC2)CC3)n2c(n[nH]c2=O)N1c1cccc(C(F)(F)F)c1 [Example 32, 1-{2-[(R)-6-carboxy-7-methyl-3-oxo-8-(3-trifluoromethyl-phenyl)-2,3,5,8-tetrahydro-[1,2,4]triazolo[4,3-a]pyrimidin-5-yl]-5-cyano-benzyl}-4-aza-1-azonia-bicyclo[2.2.2]octane formate] | < 0.02
8 | CCCC[N+](C)(C)Cc1cc(C#N)ccc1[C@@H]1C(C(=O)OC)=C(C)N(c2cccc(C(F)(F)F)c2)c2n[nH]c(=O)n21 [Example 33, Butyl-{5-cyano-2-[(R)-6-methoxycarbonyl-7-methyl-3-oxo-8-(3-trifluoromethyl-phenyl)-2,3,5,8-tetrahydro [1,2,4]triazolo[4,3-a]pyrimidin-5-yl]-benzyl}-dimethyl-ammonium formate] | < 0.02
9 | COC(=O)C1=C(C)N(c2cccc(C(F)(F)F)c2)c2n[nH]c(=O)n2[C@@H]1c1ccc(C#N)cc1C[N+]1(C)CCC(O)CC1 (stereo partly drawn) [Example 34, 1-{5-Cyano-2-[(R)-6-methoxycarbonyl-7-methyl-3-oxo-8-(3-trifluoromethyl-phenyl)-2,3,5,8-tetrahydro-[1,2,4]triazolo[4,3-a]pyrimidin-5-yl]-benzyl}-4-hydroxy-1-methyl-piperidinium formate] | < 0.02
10 | COC(=O)C1=C(C)N(c2cccc(C(F)(F)F)c2)c2n[nH]c(=O)n2[C@@H]1c1ccc(C#N)cc1C[N+]1(C)CCCC1 [Example 35, 1-{5-Cyano-2-[(R)-6-methoxycarbonyl-7-methyl-3-oxo-8-(3-trifluoromethyl-phenyl)-2,3,5,8-tetrahydro-[1,2,4]triazolo[4,3-a]pyrimidin-5-yl]-benzyl}-1-methyl-pyrrolidinium formate] | < 0.02
11 | COC(=O)C1=C(C)N(c2cccc(C(F)(F)F)c2)c2n[nH]c(=O)n2[C@@H]1c1ccc(C#N)cc1C[N+]1(C)CCCCC1 [Example 36, 1-{5-Cyano-2-[(R)-6-methoxycarbonyl-7-methyl-3-oxo-8-(3-trifluoromethyl-phenyl)-2,3,5,8-tetrahydro-[1,2,4]triazolo[4,3-a]pyrimidin-5-yl]-benzyl}-1-methyl-piperidinium formate] | < 0.02
12 | COC(=O)C1=C(C)N(c2cccc(C(F)(F)F)c2)c2n[nH]c(=O)n2[C@@H]1c1ccc(C#N)cc1C[N+]1(CCO)CCCC1 [Example 37, 1-{5-Cyano-2-[(R)-6-methoxycarbonyl-7-methyl-3-oxo-8-(3-trifluoromethyl-phenyl)-2,3,5,8-tetrahydro-[1,2,4]triazolo[4,3-a]pyrimidin-5-yl]-benzyl}-1-(2-hydroxy-ethyl)-pyrrolidinium formate] | < 0.02
13 | COC(=O)C1=C(C)N(c2cccc(C(F)(F)F)c2)c2n[nH]c(=O)n2[C@@H]1c1ccc(C#N)cc1C[N+](C)(C)CCCC(=O)N(C)C [Example 38, {5-Cyano-2-[(R)-6-methoxycarbonyl-7-methyl-3-oxo-8-(3-trifluoromethyl-phenyl)-2,3,5,8-tetrahydro-[1,2,4]triazolo[4,3-a]pyrimidin-5-yl]-benzyl}-(3-dimethylcarbamoyl-propyl)-dimethyl-ammonium formate] | < 0.02
14 | COC(=O)C1=C(C)N(c2cccc(C(F)(F)F)c2)c2n[nH]c(=O)n2[C@@H]1c1ccc(C#N)cc1CCCCC[N+](C)(C)C [Example 43, (5-{5-Cyano-2-[(R)-6-methoxycarbonyl-7-methyl-3-oxo-8-(3-trifluoromethyl-phenyl)-2,3,5,8-tetrahydro-[1,2,4]triazolo[4,3-a]pyrimidin-5-yl]-phenyl}-pentyl)-trimethyl-ammonium formate] | < 0.02
15 | COC(=O)C1=C(C)N(c2cccc(C(F)(F)F)c2)c2n[nH]c(=O)n2[C@@H]1c1ccc(C#N)cc1CCCC[N+](C)(C)C [Example 44, (4-{5-Cyano-2-[(R)-6-methoxycarbonyl-7-methyl-3-oxo-8-(3-trifluoromethyl-phenyl)-2,3,5,8-tetrahydro-[1,2,4]triazolo[4,3-a]pyrimidin-5-yl]-phenyl}-butyl)-trimethyl-ammonium formate] | < 0.02
16 | COC(=O)C1=C(C)N(c2cccc(C(F)(F)F)c2)c2n[nH]c(=O)n2[C@@H]1c1ccc(C#N)cc1CCCC[N+]12CCC(CC1)CC2 [Example 46, 1-(4-{5-Cyano-2-[(R)-6-methoxycarbonyl 7-methyl-3-oxo-8-(3-trifluoromethyl-phenyl)-2,3,5,8-tetrahydro-[1,2,4]triazolo[4,3-a]pyrimidin-5-yl]-phenyl}-butyl)-1-azonia-bicyclo[2.2.2] octane formate] | < 0.02
